Reference: PubChem BioAssay AID743121 (NCATS, 2013)

Aim: 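Knock-downs that sensitise breast cancer cells to camptothecin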 (primary screen)
System: MDA-MB-231 cells, a human breast cancer line
Knock-down reagent: single siRNA against human genes, 20 nM siRNA (0.8 pmol per well)
Duration: 120 h (drug added 48 h after transfection, read 72 h later)
Conditions: camptothecin 20 nM (about EC30) for 72 h; vehicle 0.1% DMSO in parallel plates
Detection: 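CellTiter-Glo ATP signal, scaled to control siRNA as percent viability; sensitisation given as log2 of untreated divided by camptothecin-treated viability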
Scale: log2 vehicle/camptothecin viability: higher = stronger sensitisation to camptothecin
Hit rule: 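Each gene scored by redundant siRNA activity (RSA) over its individual siRNA ratios; a gene is called active at p < 0.001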
The deposit covers about 26,000 reagents; below is a random part of them. 167 of all reagents (0.63%) were called active. 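Calls are per gene from RSA p-values that are not deposited; an individual active-marked siRNA can sensitise only weakly.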 The numbers tell different reagents against one gene apart. Not all columns of the deposit are shown.

| Target gene | siRNA no. | log2 vehicle/camptothecin viability | outcome |
| --- | --- | --- | --- |
| KCNJ4 (potassium inwardly rectifying channel subfamily J member 4) | 1 | -0.0532 | inactive |
| KCNJ4 (potassium inwardly rectifying channel subfamily J member 4) | 2 | -0.261 | inactive |
| KCNJ4 (potassium inwardly rectifying channel subfamily J member 4) | 3 | 0.576 | inactive |
| KCNJ4 (potassium inwardly rectifying channel subfamily J member 4) | 4 | -0.18 | inactive |
| LINGO1 (leucine rich repeat and Ig domain containing 1) | 1 | -0.6 | inactive |
| LINGO1 (leucine rich repeat and Ig domain containing 1) | 2 | 0.0843 | inactive |
| LINGO1 (leucine rich repeat and Ig domain containing 1) | 3 | -0.253 | inactive |
| ADAMDEC1 (ADAM like decysin 1) | 1 | -0.265 | inactive |
| ADAMDEC1 (ADAM like decysin 1) | 2 | -0.547 | inactive |
| ADAMDEC1 (ADAM like decysin 1) | 3 | 0.245 | inactive |
| FBXL7 (F-box and leucine rich repeat protein 7) | 1 | 0.0543 | inactive |
| FBXL7 (F-box and leucine rich repeat protein 7) | 2 | -0.0974 | inactive |
| FBXL7 (F-box and leucine rich repeat protein 7) | 3 | -0.631 | inactive |
| FBXL7 (F-box and leucine rich repeat protein 7) | 4 | -0.00726 | inactive |
| OR1A1 (olfactory receptor family 1 subfamily A member 1) | 1 | -0.0353 | inactive |
| OR1A1 (olfactory receptor family 1 subfamily A member 1) | 2 | 0.157 | inactive |
| OR1A1 (olfactory receptor family 1 subfamily A member 1) | 3 | -0.0296 | inactive |
| OR1A1 (olfactory receptor family 1 subfamily A member 1) | 4 | -0.0676 | inactive |

4 of these entries in another layout:
{"Target gene":"ADAMDEC1 (ADAM like decysin 1)","siRNA no.":1,"log2 vehicle/camptothecin viability":-0.265,"outcome":"inactive"}
{"Target gene":"ADAMDEC1 (ADAM like decysin 1)","siRNA no.":2,"log2 vehicle/camptothecin viability":-0.547,"outcome":"inactive"}
{"Target gene":"ADAMDEC1 (ADAM like decysin 1)","siRNA no.":3,"log2 vehicle/camptothecin viability":0.245,"outcome":"inactive"}
{"Target gene":"FBXL7 (F-box and leucine rich repeat protein 7)","siRNA no.":1,"log2 vehicle/camptothecin viability":0.0543,"outcome":"inactive"}

Continued:
| Target gene | siRNA no. | log2 vehicle/camptothecin viability | outcome |
| --- | --- | --- | --- |
| WASF1 (WASP family member 1) | 1 | -0.622 | inactive |
| WASF1 (WASP family member 1) | 2 | -0.248 | inactive |
| WASF1 (WASP family member 1) | 3 | -0.116 | inactive |
| WASF1 (WASP family member 1) | 4 | -0.159 | inactive |
| ITGA6 (integrin subunit alpha 6) | 1 | 0.155 | inactive |
| ITGA6 (integrin subunit alpha 6) | 2 | 0.179 | inactive |
| ITGA6 (integrin subunit alpha 6) | 3 | 0.17 | inactive |
| ITGA6 (integrin subunit alpha 6) | 4 | -0.316 | inactive |
| IL10RB (interleukin 10 receptor subunit beta) | 1 | -0.25 | inactive |
| IL10RB (interleukin 10 receptor subunit beta) | 2 | -0.297 | inactive |
| IL10RB (interleukin 10 receptor subunit beta) | 3 | 0.135 | inactive |
| IL10RB (interleukin 10 receptor subunit beta) | 4 | -0.0694 | inactive |
